Data reported in the supplement of paper PMC10849652.
This is one part of the list.

Amino acid sequences for entries named in this document (tags omitted). A change or cut given only in a name is not applied to a line headed by its entry.
UniProt Q9H3G5: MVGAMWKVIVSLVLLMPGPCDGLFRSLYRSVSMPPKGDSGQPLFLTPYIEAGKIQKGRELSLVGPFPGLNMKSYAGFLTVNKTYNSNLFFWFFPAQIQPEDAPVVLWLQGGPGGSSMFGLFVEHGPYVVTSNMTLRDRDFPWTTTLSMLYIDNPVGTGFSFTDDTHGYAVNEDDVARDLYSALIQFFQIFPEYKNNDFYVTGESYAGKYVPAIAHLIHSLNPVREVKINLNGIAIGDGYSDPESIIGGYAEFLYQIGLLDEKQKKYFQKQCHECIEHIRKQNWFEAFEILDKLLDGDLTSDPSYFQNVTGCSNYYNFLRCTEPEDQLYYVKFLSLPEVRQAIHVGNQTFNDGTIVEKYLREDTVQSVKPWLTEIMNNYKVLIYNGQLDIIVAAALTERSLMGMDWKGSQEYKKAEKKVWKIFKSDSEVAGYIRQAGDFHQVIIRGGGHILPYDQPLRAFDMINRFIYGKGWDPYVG
UniProt Q9NZJ6: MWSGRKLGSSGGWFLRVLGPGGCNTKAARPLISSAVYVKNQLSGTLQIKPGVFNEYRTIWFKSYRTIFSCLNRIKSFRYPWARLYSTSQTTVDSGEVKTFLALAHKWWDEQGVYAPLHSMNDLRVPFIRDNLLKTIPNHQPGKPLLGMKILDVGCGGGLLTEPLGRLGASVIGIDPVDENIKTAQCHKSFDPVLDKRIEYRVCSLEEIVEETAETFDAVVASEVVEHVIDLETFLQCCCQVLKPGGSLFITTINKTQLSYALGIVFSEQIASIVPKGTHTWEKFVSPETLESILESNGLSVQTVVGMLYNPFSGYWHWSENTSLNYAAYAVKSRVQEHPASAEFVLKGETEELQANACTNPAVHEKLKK
UniProt O14548: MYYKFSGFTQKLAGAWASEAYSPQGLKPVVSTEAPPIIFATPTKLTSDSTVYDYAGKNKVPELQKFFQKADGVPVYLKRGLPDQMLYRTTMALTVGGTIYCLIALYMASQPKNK
UniProt Q9P000, whole entry, looked up: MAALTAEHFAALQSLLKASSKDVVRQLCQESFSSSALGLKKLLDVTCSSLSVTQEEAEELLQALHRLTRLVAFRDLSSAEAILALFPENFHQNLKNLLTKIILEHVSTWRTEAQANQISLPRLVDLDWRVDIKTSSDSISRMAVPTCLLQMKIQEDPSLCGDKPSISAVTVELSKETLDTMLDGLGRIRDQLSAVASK
UniProt P31146: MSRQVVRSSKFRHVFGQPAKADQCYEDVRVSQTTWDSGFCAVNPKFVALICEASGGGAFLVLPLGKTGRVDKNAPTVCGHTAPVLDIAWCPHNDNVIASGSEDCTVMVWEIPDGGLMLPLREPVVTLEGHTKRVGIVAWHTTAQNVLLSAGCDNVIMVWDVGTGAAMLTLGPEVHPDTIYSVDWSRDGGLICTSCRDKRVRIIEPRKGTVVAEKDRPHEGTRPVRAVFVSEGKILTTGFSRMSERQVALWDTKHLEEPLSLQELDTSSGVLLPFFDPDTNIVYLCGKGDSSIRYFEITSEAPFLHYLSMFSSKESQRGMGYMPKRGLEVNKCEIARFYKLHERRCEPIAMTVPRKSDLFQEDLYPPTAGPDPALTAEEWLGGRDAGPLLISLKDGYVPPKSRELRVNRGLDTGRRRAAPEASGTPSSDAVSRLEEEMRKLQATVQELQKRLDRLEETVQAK
UniProt P46108: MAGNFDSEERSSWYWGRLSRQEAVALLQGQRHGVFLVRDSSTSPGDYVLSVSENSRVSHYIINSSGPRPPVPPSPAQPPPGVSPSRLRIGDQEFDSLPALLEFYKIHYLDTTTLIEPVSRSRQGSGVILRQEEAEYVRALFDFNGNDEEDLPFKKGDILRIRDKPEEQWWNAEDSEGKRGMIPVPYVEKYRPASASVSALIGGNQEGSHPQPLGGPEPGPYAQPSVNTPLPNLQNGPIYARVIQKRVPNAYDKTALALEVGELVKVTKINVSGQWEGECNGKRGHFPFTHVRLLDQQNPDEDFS
UniProt P21964: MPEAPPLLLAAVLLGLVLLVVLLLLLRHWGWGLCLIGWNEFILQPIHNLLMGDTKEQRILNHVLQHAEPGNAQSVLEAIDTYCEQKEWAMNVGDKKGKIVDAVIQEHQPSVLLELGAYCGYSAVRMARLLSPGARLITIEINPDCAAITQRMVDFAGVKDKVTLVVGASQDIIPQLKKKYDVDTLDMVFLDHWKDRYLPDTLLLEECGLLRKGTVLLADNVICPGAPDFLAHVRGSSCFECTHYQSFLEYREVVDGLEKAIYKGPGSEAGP
UniProt P02511: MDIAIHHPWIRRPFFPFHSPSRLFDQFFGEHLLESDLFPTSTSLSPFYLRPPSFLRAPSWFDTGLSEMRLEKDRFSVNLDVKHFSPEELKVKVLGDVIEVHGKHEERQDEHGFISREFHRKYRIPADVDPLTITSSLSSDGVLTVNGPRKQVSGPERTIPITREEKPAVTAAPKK
UniProt Q9Y6G5, whole entry, looked up: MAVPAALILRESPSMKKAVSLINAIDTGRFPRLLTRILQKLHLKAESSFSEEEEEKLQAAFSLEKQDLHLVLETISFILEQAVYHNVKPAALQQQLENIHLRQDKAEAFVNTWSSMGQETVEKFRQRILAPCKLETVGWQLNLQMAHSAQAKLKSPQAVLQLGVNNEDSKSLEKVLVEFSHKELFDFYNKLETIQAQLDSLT
UniProt P13073, whole entry, looked up: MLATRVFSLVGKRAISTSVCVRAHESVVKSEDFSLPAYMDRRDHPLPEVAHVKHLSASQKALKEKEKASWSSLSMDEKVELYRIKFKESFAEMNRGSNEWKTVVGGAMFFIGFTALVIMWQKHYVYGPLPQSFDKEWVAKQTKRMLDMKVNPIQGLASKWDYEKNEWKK
UniProt Q9H0A8, whole entry, looked up: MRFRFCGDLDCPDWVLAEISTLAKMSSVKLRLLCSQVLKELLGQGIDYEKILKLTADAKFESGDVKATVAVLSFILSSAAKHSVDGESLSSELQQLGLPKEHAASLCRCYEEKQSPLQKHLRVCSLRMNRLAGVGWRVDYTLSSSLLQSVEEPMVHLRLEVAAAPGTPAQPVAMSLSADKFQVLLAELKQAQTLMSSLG
UniProt O75390: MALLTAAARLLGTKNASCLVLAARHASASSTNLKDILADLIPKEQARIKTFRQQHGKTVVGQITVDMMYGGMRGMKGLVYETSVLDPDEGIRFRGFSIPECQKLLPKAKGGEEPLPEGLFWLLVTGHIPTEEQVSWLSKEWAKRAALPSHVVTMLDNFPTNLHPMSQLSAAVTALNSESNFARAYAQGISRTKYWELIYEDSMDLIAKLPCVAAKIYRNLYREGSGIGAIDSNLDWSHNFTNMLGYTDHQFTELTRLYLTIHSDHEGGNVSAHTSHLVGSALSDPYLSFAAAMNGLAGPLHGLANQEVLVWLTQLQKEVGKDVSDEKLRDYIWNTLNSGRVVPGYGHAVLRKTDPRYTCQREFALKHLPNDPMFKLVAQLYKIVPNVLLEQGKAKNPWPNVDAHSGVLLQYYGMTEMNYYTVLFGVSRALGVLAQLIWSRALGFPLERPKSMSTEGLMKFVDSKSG
UniProt P20674, whole entry, looked up: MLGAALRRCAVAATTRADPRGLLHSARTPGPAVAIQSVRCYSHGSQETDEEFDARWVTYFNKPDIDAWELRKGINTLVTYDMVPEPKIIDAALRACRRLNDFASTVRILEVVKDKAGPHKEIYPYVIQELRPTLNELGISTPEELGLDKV
UniProt P23786: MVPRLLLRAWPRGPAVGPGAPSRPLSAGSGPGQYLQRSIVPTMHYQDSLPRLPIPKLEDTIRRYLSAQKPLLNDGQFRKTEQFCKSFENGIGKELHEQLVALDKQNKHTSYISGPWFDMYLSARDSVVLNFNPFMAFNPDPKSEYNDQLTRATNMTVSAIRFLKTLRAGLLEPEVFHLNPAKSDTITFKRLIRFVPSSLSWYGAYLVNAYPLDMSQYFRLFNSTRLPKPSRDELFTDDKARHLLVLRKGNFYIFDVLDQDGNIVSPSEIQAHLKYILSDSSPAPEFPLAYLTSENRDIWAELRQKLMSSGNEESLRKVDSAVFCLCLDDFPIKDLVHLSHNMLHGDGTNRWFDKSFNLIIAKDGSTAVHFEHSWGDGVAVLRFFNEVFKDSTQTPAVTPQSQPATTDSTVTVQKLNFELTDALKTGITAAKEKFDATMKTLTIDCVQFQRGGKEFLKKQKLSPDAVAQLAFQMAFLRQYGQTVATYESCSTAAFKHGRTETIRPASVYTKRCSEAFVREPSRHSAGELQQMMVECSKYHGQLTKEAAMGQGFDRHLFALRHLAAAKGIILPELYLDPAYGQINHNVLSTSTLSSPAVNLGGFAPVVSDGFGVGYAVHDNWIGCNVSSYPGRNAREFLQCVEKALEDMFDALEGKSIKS
UniProt Q9Y6N1: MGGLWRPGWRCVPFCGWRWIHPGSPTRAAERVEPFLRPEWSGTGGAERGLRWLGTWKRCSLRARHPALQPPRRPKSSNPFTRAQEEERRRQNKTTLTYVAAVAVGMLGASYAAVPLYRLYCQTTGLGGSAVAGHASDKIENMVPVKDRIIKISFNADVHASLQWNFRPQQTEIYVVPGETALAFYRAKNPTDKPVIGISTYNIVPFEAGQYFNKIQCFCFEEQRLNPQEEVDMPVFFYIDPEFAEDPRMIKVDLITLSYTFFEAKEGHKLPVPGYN
UniProt Q99807: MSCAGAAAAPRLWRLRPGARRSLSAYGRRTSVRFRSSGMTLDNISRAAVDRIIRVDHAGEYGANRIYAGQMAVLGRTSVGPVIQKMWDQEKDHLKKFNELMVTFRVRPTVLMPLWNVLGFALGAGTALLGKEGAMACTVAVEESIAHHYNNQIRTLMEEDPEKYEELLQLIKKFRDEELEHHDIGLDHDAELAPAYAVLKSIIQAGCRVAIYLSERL
UniProt Q9ULV4, whole entry, looked up: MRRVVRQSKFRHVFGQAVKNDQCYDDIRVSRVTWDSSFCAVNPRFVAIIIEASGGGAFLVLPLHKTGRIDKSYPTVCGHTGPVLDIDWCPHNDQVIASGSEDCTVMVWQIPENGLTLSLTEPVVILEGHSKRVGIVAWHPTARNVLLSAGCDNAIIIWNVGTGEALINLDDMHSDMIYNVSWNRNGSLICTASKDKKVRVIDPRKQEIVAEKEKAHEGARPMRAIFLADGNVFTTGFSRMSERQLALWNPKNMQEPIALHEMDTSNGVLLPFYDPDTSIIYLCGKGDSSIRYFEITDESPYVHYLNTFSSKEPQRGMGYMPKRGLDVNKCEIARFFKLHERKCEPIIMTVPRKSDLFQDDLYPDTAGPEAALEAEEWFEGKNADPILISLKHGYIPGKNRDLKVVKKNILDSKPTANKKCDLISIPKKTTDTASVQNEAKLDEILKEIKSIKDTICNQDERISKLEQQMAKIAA

Experiments:
Assay in all cases: log2 fold change, soluble protein after heating vs DMSO (PISA); higher = thermal stabilisation; K562 cells, 10 uM, 30 min; active = over 0.2 and 3.5 SD of the protein, either way, in both replicates (recomputed)
[1] = compound: CS(=O)(=O)c1ccc(-c2cnc(N)c(C(=O)Nc3ccccc3)n2)cc1
How it was run: (§1)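 Quantification of soluble protein used TMTpro 16plex LC-MS/MS, with channel sums equalised. Samples were the supernatant after 21,000xg for 90 min of pooled aliquots from K562 cells (2×10^6 cells/mL) treated with 10 μM compound for 30 min, heated for 3 min over 48°C-58°C, and extracted in PBS with 0.5% NP-40 at 4°C. Values, from duplicates, describe thermal stability against control samples on a log2 fold-change scale.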

crizotinib = compound: C[C@@H](Oc1cc(-c2cnn(C3CCNCC3)c2)cnc1N)c1c(Cl)ccc(F)c1Cl [crizotinib]
How it was run: as §1

[2] = compound: C[C@@H]1COCCN1C2=NC(=NC(=C2)C3(CC3)S(=O)(=O)C)C4=C5C=CNC5=CC=C4
How it was run: as §1

[3] = compound: C[C@H](C1=CC=C(C=C1)C(=O)NC2=C3C=CNC3=NC=C2)N
How it was run: as §1

duvelisib = compound: C[C@H](Nc1ncnc2nc[nH]c12)c1cc2cccc(Cl)c2c(=O)n1-c1ccccc1 [duvelisib]
How it was run: as §1

gandotinib = compound: Cc1cc(Nc2cc(CN3CCOCC3)c3nc(C)c(Cc4ccc(Cl)cc4F)n3n2)n[nH]1 [gandotinib]
How it was run: as §1

tozasertib = compound: Cc1cc(Nc2cc(N3CCN(C)CC3)nc(Sc3ccc(NC(=O)C4CC4)cc3)n2)n[nH]1 [tozasertib]
How it was run: as §1

[4] = compound: Cc1cc(SCc2sc(-c3ccc(C(F)(F)F)cc3)nc2C)ccc1OCC(=O)O
How it was run: as §1

doramapimod = compound: Cc1ccc(-n2nc(C(C)(C)C)cc2NC(=O)Nc2ccc(OCCN3CCOCC3)c3ccccc23)cc1 [doramapimod]
How it was run: as §1

ispinesib = compound: Cc1ccc(C(=O)N(CCCN)[C@@H](c2nc3cc(Cl)ccc3c(=O)n2Cc2ccccc2)C(C)C)cc1 [ispinesib]
How it was run: as §1

bafetinib = compound: Cc1ccc(NC(=O)c2ccc(CN3CC[C@H](N(C)C)C3)c(C(F)(F)F)c2)cc1Nc1nccc(-c2cncnc2)n1 [bafetinib]
How it was run: as §1

[5] = compound: Cc1cccc(CC(=O)N2CCc3c2ccc(-c2cn(C)c4ncnc(N)c24)c3F)n1
How it was run: as §1

nilotinib = compound: Cc1cn(-c2cc(NC(=O)c3ccc(C)c(Nc4nccc(-c5cccnc5)n4)c3)cc(C(F)(F)F)c2)cn1 [nilotinib]
How it was run: as §1

[6] = compound: Cc1nc(Nc2n[nH]c3c2CN(C(=O)N[C@H](CN(C)C)c2ccccc2)C3(C)C)c2sccc2n1
How it was run: as §1

dasatinib = compound: Cc1nc(Nc2ncc(C(=O)Nc3c(C)cccc3Cl)s2)cc(N2CCN(CCO)CC2)n1 [dasatinib]
How it was run: as §1

[7] = compound: Cc1ncc(-c2ccnc(Nc3ccc(S(C)(=O)=O)cc3)n2)n1C(C)C
How it was run: as §1

[8] = compound: Cn1cc(-c2ccc3c(c2)CCN3C(=O)Cc2cccc(C(F)(F)F)c2)c2c(N)ncnc21
How it was run: as §1

[9] = compound: Cn1cc(-c2ccc3nnc(C(F)(F)c4ccc5ncccc5c4)n3n2)cn1
How it was run: as §1

tipifarnib = compound: Cn1cncc1[C@@](N)(c1ccc(Cl)cc1)c1ccc2c(c1)c(-c1cccc(Cl)c1)cc(=O)n2C [tipifarnib]
How it was run: as §1

mubritinib = compound: FC(F)(F)c1ccc(/C=C/c2nc(COc3ccc(CCCCn4ccnn4)cc3)co2)cc1 [mubritinib]
How it was run: as §1

Target | log2 fold change [1] | log2 fold change (crizotinib) | log2 fold change [2] | log2 fold change [3] | log2 fold change (duvelisib) | log2 fold change (gandotinib) | log2 fold change (tozasertib) | log2 fold change [4] | log2 fold change (doramapimod) | log2 fold change (ispinesib) | log2 fold change (bafetinib) | log2 fold change [5] | log2 fold change (nilotinib) | log2 fold change [6] | log2 fold change (dasatinib) | log2 fold change [7] | log2 fold change [8] | log2 fold change [9] | log2 fold change (tipifarnib) | log2 fold change (mubritinib)
CPVL (UniProt Q9H3G5) | inactive: 0 | inactive: -0.084 | inactive: 0.078 | inactive: 0.171 | inactive: 0.205 | inactive: 0.023 | inactive: -0.053 | inactive: -0.046 | inactive: -0.004 | inactive: -0.194 | inactive: -0.028 | inactive: -0.046 | inactive: -0.156 | inactive: 0.041 | inactive: 0.043 | inactive: -0.054 | inactive: -0.03 | inactive: 0.097 | inactive: 0.069 | inactive: 0.027
COQ3 (UniProt Q9NZJ6) | inactive: 0.034 | inactive: -0.206 | inactive: 0.072 | inactive: -0.069 | inactive: -0.113 | inactive: 0.038 | inactive: 0.08 | inactive: 0.026 | inactive: 0.051 | inactive: -0.016 | inactive: -0.042 | inactive: -0.021 | inactive: -0.025 | inactive: -0.001 | inactive: 0.014 | inactive: -0.092 | inactive: -0.057 | inactive: -0.106 | inactive: 0.019 | inactive: 0.078
COX7A2L (UniProt O14548) | inactive: 0.037 | inactive: 0.024 | inactive: 0.095 | inactive: -0.034 | inactive: 0.105 | inactive: 0.008 | inactive: 0.011 | inactive: -0.032 | inactive: -0.001 | inactive: 0.017 | inactive: -0.028 | inactive: -0.027 | inactive: 0.019 | inactive: -0.001 | inactive: 0.083 | inactive: -0.034 | inactive: 0.089 | inactive: 0.184 | inactive: -0.073 | inactive: 0.019
COMMD9 (UniProt Q9P000) | inactive: -0.139 | inactive: -0.056 | inactive: 0.197 | inactive: 0.025 | inactive: 0.121 | inactive: 0.103 | inactive: 0.151 | inactive: 0.064 | inactive: 0.051 | inactive: 0.098 | inactive: 0.031 | inactive: -0.019 | inactive: 0.015 | inactive: 0.01 | inactive: 0.048 | inactive: -0.042 | inactive: -0.05 | inactive: 0.082 | inactive: 0.073 | inactive: 0.033
CORO1A (UniProt P31146) | inactive: 0.035 | inactive: -0.051 | inactive: 0.016 | inactive: -0.055 | inactive: 0.02 | inactive: -0.139 | inactive: 0.064 | inactive: 0.02 | inactive: 0.015 | inactive: -0.082 | inactive: 0.014 | inactive: -0.04 | inactive: -0.012 | inactive: -0.092 | inactive: -0.084 | inactive: 0.051 | inactive: 0.196 | inactive: 0.001 | inactive: 0.002 | inactive: 0.076
CRK (UniProt P46108) | inactive: 0.043 | active: -1.02 | inactive: 0.008 | inactive: -0.064 |  | inactive: -0.096 |  | inactive: 0.058 | inactive: 0.01 | inactive: -0.004 | active: -0.586 | inactive: -0.02 | active: -0.826 | inactive: -0.136 | active: -0.883 | inactive: 0.036 | inactive: -0.007 | inactive: 0.03 | inactive: 0.026 | inactive: 0.075
COMT (UniProt P21964) | inactive: 0.04 | active: 0.352 | inactive: 0.053 | inactive: -0.081 |  | inactive: 0.031 |  | inactive: 0.02 | inactive: 0 | active: 0.235 | inactive: 0.011 | inactive: -0.019 | inactive: 0.01 | inactive: 0.119 | inactive: 0.03 | inactive: 0.009 | inactive: 0.073 | inactive: 0.031 | inactive: 0.002 | inactive: 0.06
CRYAB (UniProt P02511) | inactive: 0.12 | inactive: -0.041 | inactive: 0.067 | inactive: 0.408 | inactive: 0.046 |  |  | inactive: 0.071 | inactive: 0.081 |  |  |  |  |  | inactive: -0.173 |  | inactive: -0.152 |  |  | 
COMMD10 (UniProt Q9Y6G5) | inactive: 0.034 | inactive: -0.039 | inactive: 0.04 | inactive: -0.15 | inactive: 0.052 | inactive: 0.15 | inactive: 0.067 | inactive: -0.005 | inactive: 0.061 | inactive: 0.054 | inactive: -0.018 | inactive: 0.078 | inactive: 0.007 | inactive: -0.005 | inactive: -0.021 | inactive: 0.002 | inactive: 0.113 | inactive: -0.061 | inactive: -0.064 | inactive: 0.089
COX4I1 (UniProt P13073) | inactive: -0.036 | inactive: 0.036 | inactive: 0.002 | inactive: -0.044 | inactive: 0.007 | inactive: -0.007 | inactive: -0.008 | inactive: -0.025 | inactive: 0.005 | inactive: 0.015 | inactive: -0.021 | inactive: -0.018 | inactive: 0.015 | inactive: 0.044 | inactive: 0.048 | inactive: -0.039 | inactive: 0.013 | inactive: -0.005 | inactive: 0.026 | inactive: 0.019
COMMD4 (UniProt Q9H0A8) | inactive: 0.089 | inactive: 0.03 | inactive: -0.114 | inactive: 0.104 | inactive: 0.029 | inactive: -0.148 | inactive: 0.135 | inactive: 0.03 | inactive: -0.078 | inactive: -0.13 | inactive: -0.054 | inactive: 0.114 | inactive: -0.078 | inactive: -0.099 | inactive: -0.12 | inactive: 0.02 | inactive: -0.056 | inactive: -0.077 |  | inactive: 0.031
CS (UniProt O75390) | inactive: 0.044 | inactive: -0.122 | inactive: 0.072 | inactive: -0.034 |  | inactive: -0.037 |  | inactive: 0.061 | inactive: 0.017 | inactive: -0.157 | inactive: 0.013 | inactive: -0.061 | inactive: 0.011 | inactive: -0.051 | inactive: -0.131 | inactive: -0.097 | inactive: 0.075 | inactive: 0.083 | inactive: -0.033 | inactive: 0.015
COX5A (UniProt P20674) | inactive: -0.011 | inactive: 0.245 | inactive: 0.109 | inactive: -0.092 |  | inactive: 0.12 |  | inactive: 0.011 | inactive: -0.039 | active: 0.411 | inactive: -0.079 | inactive: -0.003 | inactive: 0.067 | inactive: -0.023 | inactive: 0.06 | inactive: -0.067 | inactive: 0.109 | active: 0.422 | inactive: 0.103 | inactive: 0.021
CPT2 (UniProt P23786) | active: 0.701 | inactive: -0.42 | inactive: 0.06 | inactive: -0.01 |  | inactive: 0.119 |  | active: 1.04 | inactive: -0.019 | inactive: -0.306 | inactive: -0.115 | inactive: 0.008 | inactive: 0.096 | inactive: -0.003 | inactive: 0.217 | inactive: 0.047 | inactive: 0.268 | inactive: 0.265 | inactive: -0.076 | active: 0.763
COX11 (UniProt Q9Y6N1) | inactive: 0.039 | inactive: 0.027 | inactive: 0.065 | inactive: -0.09 | inactive: 0.119 | inactive: -0.054 | inactive: -0.012 | inactive: -0.047 | inactive: -0.106 | inactive: -0.133 | inactive: -0.011 | inactive: -0.027 | inactive: 0.008 | inactive: -0.038 | inactive: -0.098 | inactive: 0.022 | inactive: 0.064 | inactive: -0.125 | inactive: 0.025 | inactive: 0.026
COQ7 (UniProt Q99807) | inactive: 0.113 | inactive: -0.163 | inactive: 0.062 | inactive: 0.007 |  | active: -0.359 |  | inactive: 0.019 | inactive: 0.009 | inactive: -0.181 | inactive: -0.168 | inactive: -0.062 | inactive: 0.006 | inactive: -0.103 | inactive: -0.006 | inactive: -0.033 | inactive: 0.055 | inactive: 0.095 | inactive: 0.029 | inactive: 0.055
CORO1C isoform 3 (UniProt Q9ULV4) | inactive: -0.075 | inactive: 0.089 | inactive: -0.053 | inactive: -0.098 | inactive: -0.026 | inactive: 0 | inactive: 0.069 | inactive: 0.005 | inactive: -0.008 | inactive: 0.161 | inactive: 0.007 | inactive: 0.05 | inactive: 0.038 | inactive: -0.06 | inactive: 0.043 | inactive: 0.073 | inactive: 0.034 | inactive: -0.046 | inactive: 0.003 | inactive: 0.004

Exported tab-delimited: part of the list above.
Target	log2 fold change [1]	log2 fold change (crizotinib)	log2 fold change [2]	log2 fold change [3]	log2 fold change (duvelisib)	log2 fold change (gandotinib)	log2 fold change (tozasertib)	log2 fold change [4]	log2 fold change (doramapimod)	log2 fold change (ispinesib)	log2 fold change (bafetinib)	log2 fold change [5]	log2 fold change (nilotinib)	log2 fold change [6]	log2 fold change (dasatinib)	log2 fold change [7]	log2 fold change [8]	log2 fold change [9]	log2 fold change (tipifarnib)	log2 fold change (mubritinib)
COX5A (UniProt P20674)	inactive: -0.011	inactive: 0.245	inactive: 0.109	inactive: -0.092		inactive: 0.12		inactive: 0.011	inactive: -0.039	active: 0.411	inactive: -0.079	inactive: -0.003	inactive: 0.067	inactive: -0.023	inactive: 0.06	inactive: -0.067	inactive: 0.109	active: 0.422	inactive: 0.103	inactive: 0.021
CPT2 (UniProt P23786)	active: 0.701	inactive: -0.42	inactive: 0.06	inactive: -0.01		inactive: 0.119		active: 1.04	inactive: -0.019	inactive: -0.306	inactive: -0.115	inactive: 0.008	inactive: 0.096	inactive: -0.003	inactive: 0.217	inactive: 0.047	inactive: 0.268	inactive: 0.265	inactive: -0.076	active: 0.763
